Here are results for one substance from article PMC10167234.

Amino acid sequences for entries named in this document (tags omitted).
UniProt Q92922: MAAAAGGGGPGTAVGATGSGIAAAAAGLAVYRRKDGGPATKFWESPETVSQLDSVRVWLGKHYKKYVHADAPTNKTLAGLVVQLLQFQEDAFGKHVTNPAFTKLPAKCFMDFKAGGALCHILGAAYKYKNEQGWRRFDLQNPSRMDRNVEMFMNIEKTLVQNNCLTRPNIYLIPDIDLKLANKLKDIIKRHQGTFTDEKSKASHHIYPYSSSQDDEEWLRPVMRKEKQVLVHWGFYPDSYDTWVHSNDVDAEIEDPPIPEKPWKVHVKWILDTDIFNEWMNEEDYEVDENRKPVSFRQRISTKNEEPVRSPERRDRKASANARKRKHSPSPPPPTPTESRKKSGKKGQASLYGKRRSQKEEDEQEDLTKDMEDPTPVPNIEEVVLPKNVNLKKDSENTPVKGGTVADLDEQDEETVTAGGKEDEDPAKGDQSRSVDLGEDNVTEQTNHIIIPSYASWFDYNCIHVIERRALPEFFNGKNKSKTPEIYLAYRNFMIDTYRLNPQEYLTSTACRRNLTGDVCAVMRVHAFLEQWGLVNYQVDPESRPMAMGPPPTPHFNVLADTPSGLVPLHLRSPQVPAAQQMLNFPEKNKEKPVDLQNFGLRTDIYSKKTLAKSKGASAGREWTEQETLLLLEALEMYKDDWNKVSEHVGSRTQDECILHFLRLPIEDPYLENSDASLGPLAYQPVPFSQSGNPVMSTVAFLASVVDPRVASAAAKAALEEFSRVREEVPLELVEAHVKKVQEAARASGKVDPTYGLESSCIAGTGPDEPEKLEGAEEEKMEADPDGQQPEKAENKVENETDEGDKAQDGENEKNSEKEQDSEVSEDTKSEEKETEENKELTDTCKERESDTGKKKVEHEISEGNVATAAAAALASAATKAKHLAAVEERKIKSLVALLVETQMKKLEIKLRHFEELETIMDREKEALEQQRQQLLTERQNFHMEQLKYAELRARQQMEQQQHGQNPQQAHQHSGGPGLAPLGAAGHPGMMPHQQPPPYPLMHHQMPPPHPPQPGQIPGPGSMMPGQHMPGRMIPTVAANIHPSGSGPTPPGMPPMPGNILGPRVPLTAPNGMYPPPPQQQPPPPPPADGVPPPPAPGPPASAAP
UniProt P09874: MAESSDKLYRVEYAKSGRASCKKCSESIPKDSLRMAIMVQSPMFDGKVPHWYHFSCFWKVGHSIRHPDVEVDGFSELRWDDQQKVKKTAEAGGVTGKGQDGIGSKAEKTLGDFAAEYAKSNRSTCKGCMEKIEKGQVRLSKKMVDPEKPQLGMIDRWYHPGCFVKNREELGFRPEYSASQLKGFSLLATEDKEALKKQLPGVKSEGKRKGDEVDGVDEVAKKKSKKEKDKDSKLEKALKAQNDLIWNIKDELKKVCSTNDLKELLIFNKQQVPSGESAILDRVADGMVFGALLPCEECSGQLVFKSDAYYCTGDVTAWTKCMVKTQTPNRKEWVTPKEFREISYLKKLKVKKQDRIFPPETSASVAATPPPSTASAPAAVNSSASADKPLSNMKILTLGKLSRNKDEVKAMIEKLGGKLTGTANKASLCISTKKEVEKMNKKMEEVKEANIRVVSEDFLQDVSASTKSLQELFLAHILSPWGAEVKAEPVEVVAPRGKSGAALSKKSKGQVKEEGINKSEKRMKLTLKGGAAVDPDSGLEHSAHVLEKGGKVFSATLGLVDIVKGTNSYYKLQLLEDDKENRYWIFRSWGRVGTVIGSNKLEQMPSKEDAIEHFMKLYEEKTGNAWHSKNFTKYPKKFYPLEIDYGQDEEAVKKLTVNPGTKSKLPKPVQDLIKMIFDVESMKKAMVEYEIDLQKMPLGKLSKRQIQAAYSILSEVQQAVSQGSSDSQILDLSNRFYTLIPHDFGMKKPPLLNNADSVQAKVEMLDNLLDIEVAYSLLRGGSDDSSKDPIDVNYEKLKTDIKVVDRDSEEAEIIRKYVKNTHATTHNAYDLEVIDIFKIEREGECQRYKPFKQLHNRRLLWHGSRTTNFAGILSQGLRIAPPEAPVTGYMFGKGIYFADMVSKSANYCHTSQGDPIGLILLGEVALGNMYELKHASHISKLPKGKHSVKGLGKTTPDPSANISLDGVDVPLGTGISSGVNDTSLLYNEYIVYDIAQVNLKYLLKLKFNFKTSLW

The experiment concerns the target BAF155 (UniProt Q92922). The experiment is described as follows: affinity purification with mass spectrometry; potential protein interactors of BAF155 identified using mass spectroscopy; sample not told in the main text.

No constants are given. Whether binding was seen depends on the method and setting. In cells and extracts the contact can be indirect. These calls come from enrichment with a bait or labelling near it, and not all partners need be listed.

With “Poly(ADP-ribose) polymerase 1 (PARP1) (from UniProt P09874 1-1014)”, the binding result is “binds”.
